The values below come from patent publication US8399503B2, “Spirocyclic azaindole derivatives” (Gruenenthal GmbH, priority 2006, dated 2013).

Chains of the proteins cited; added tags and fusions are not shown.
UniProt P35372, whole entry: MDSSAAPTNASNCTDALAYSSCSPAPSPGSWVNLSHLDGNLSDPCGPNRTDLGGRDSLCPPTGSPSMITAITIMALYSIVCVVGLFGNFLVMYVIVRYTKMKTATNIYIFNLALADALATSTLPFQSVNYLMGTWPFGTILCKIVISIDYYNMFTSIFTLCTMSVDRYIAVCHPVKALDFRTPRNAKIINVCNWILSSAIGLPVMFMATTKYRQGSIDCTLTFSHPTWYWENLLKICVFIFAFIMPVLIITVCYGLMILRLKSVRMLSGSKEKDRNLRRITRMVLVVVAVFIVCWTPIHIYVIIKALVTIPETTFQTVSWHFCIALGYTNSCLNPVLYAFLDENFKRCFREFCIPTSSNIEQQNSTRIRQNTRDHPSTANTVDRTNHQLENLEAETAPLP

The target of this assay is human μ-opiate receptor (Homo sapiens, UniProt P35372). Description: μ binding: [3H]-naloxone displacement, membrane preparation of CHO-K1 cells expressing the human μ-opiate receptor. The following applies: read-out: μ-Opioid receptor, Ki value; [3H]-naloxone 1 nmole/l; Cheng-Prusoff conversion; tested form: citrate (4:3).

The match of structure and compound is tentative.

Turning to `CN(C)C1(c2ccccc2)CCC2(CC1)OCCc1c2[nH]c2ncccc12` (stereo not shown), the Ki was determined as 25 nM.
